# These are yes or no findings as the source states them, for the method shown. Binding seen in cells or lysates may run through a third protein. These calls come from enrichment with a bait or labelling near it, and not all partners need be listed.
# The chains behind the UniProt entries cited, without tags or fusion partners. Residues count along the entry.
# UniProt Q8N668: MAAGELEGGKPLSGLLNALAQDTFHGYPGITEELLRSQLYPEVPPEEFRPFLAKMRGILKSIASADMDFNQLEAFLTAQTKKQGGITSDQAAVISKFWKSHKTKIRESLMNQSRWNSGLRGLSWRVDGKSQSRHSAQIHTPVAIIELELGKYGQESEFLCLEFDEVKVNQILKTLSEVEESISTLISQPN
# UniProt Q86X83: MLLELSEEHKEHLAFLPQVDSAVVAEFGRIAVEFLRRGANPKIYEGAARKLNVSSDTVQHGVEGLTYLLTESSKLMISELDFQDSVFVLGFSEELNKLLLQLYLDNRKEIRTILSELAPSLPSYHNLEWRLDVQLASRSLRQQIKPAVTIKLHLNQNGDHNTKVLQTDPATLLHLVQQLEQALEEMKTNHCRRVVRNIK
# UniProt Q9Y6G5, residues 12-202: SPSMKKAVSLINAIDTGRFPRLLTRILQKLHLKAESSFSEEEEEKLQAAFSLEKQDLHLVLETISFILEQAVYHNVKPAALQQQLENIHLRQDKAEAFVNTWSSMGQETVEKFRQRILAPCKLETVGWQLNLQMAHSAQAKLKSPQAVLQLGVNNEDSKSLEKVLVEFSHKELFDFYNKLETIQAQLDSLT
# UniProt Q9NX08: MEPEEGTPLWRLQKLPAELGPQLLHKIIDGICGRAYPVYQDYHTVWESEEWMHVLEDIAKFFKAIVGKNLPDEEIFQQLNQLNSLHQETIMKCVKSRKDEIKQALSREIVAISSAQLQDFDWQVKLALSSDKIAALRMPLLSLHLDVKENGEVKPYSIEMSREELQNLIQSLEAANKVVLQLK
# UniProt Q9H0A8: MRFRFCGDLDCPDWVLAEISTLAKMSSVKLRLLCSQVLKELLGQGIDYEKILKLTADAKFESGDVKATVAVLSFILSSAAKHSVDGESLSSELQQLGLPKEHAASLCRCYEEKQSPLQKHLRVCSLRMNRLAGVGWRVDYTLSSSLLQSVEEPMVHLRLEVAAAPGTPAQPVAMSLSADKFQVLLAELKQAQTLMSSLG
# UniProt Q7Z4G1: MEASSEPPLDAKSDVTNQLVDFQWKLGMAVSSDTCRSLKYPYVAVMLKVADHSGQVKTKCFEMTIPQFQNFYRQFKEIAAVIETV
# UniProt Q86VX2: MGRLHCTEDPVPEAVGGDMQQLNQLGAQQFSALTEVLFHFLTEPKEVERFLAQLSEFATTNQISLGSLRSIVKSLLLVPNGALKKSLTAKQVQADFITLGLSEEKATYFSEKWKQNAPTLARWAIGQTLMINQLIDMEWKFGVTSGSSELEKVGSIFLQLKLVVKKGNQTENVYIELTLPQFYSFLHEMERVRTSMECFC
# How the values were obtained:
# Test in all cases: affinity purification with mass spectrometry
# COMMD1-His (human) = COMMD1-His (human) (UniProt Q8N668)
# COMMD2-His (human) = COMMD2-His (human) (UniProt Q86X83)
# COMMD10-His (human) = COMMD10-His (human) (UniProt Q9Y6G5)
Substance,binding (COMMD1-His (human)),binding (COMMD2-His (human)),binding (COMMD10-His (human))
COMMD8 (E. coli co-expression) (from UniProt Q9NX08 1-183),binds,binds,–
COMMD4 (E. coli co-expression) (from UniProt Q9H0A8 1-199),binds,binds,–
COMMD6 (E. coli co-expression) (from UniProt Q7Z4G1 1-85),binds,–,–
COMMD7 (E. coli co-expression) (from UniProt Q86VX2 1-200),–,–,binds
